# In PubChem BioAssay AID2685 (National Center for Advancing Translational Sciences (NCATS), 2010):
# The other results are listed elsewhere or left out. The main result of the screen is listed elsewhere. These columns were measured beside it and carry no call. Most of these compounds were active or inconclusive in the main read-out, so they are no random draw. Words in brackets tell the shape of the fitted curve; partial curves, single points and poor fits give uncertain potencies.
# Experiment: qHTS Assay for Lipid Storage Modulators in Drosophila S3 Cells;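 as to cell number change: cells counted by Cell Tracker Red CMTPX staining in the red channel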
# Conditions: BODIPY lipid droplet fluorescence, 18-24 h; for cell number change: measured here: cell count max response, cells fed with added oleic acid
# Method in brief: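 Laser-scanning cytometry quantifies lipid droplet accumulation (500–530 nm total intensity; droplet/cell object ratio) in oleic acid-fed (400 uM added) Drosophila S3 cells treated with a concentration series. 20 uM Triacsin C defined 100% inhibition.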
# [1] = measured here: lipid fluorescence (Fed channel) AC50, cells fed with added oleic acid
# [2] = measured here: cell number channel AC50, cells fed with added oleic acid
SMILES,cell number change,AC50 [1],AC50 [2]
CNc1c([N+](=O)[O-])cnn1-c1ccc(F)cc1,-5.15%,"18.4 µM [rising, single point]",
Cc1cccc(-n2c(C)cc(C(=O)NC3CCCCC3)c2C)c1,,"14.6 µM [falling, partial curve]",
Cc1cccc(Nc2nc(N)nc(CC(=O)CSc3ccc(Cl)cc3)n2)c1,23.7%,"0.366 µM [rising, full curve, poor fit]","0.259 µM [rising, full curve, poor fit]"
CCOc1cc(/C=C(\C#N)C(=O)Nc2cccc(C(=O)O)c2)ccc1OCc1ccccc1Cl,-16.1%,"29.1 µM [falling, single point]","6.51 µM [falling, single point]"
COc1ccc([C@H]2Oc3cc(O)cc(O)c3C(=O)C2[C@@H]2C(=O)c3c(O)cc(O)cc3O[C@@H]2c2ccc(OC)cc2)cc1 (stereo not given in full),-68.8%,"29.1 µM [falling, single point]","29.1 µM [falling, single point]"
Cc1ccc(C(C(=O)NC2CCCC2)N2CCCC(C)C2)cc1 (stereo not given),-14.8%,"2.31 µM [falling, single point]","3.26 µM [falling, single point]"
CC1=C(C#N)C(c2cn(-c3ccccc3)nc2-c2cccs2)C(C#N)=C(C)N1,-42.3%,,"0.00411 µM [falling, full curve, poor fit]"
CCc1ccc(C(=O)c2cncc(Br)c2)cc1,-16.8%,"16.4 µM [rising, partial curve]",
COc1cc2c(cc1OC)CN(C(=O)C(C)(C)C)CC2,-6.09%,,
Cn1ncc2cc(NC(N)=S)ccc21,40.2%,,
COc1ccc(CCC(C)Nc2cccc(F)c2)cc1 (stereo not given),-6.97%,"0.92 µM [falling, full curve]","0.651 µM [falling, full curve]"
CC(C)CCC(=O)N1CCOC1=O,36.9%,"29.1 µM [rising, single point]","13 µM [rising, partial curve, poor fit]"
CSCCC(NC(=O)c1ccc(Br)cc1)C(=O)O (stereo not given),29.8%,"29.1 µM [rising, single point]",
CCOc1ccc(S(=O)(=O)N2CCC(C(=O)NCCN3CCOCC3)CC2)cc1C,9.21%,"3.55 µM [falling, full curve, poor fit]",
Cc1ccc(C(=O)OCC(=O)c2ccc(CC(=O)N3CCOCC3)s2)c(C)c1,-12.9%,,
CCCNC(=O)NC(=O)CN1C(=O)NC(C)(c2ccc3ccccc3c2)C1=O (stereo not given),-6.67%,,
CN1C2C=C3C(C#N)=C(N)C(C#N)(C#N)[C@@H](c4ccsc4)[C@@H]3C1CC2 (stereo not given in full),-5.17%,,
O=C(OCC(=O)c1ccc[nH]1)c1ccccc1,-5.41%,,"1.64 µM [rising, partial curve]"
CCOC(=O)/C(=N\Nc1ccccc1[N+](=O)[O-])c1csc(Nc2ccccc2)n1,-96.1%,"18.4 µM [falling, partial curve]","18.4 µM [falling, partial curve]"
CSc1ccc(C(=S)N2CCN(C(c3ccccc3)c3ccccc3)CC2)cc1,20.1%,"0.92 µM [rising, full curve]",

# An excerpt of these results, as tab-separated lines:
SMILES	cell number change	AC50 [1]	AC50 [2]
CNc1c([N+](=O)[O-])cnn1-c1ccc(F)cc1	-5.15%	18.4 µM [rising, single point]	
Cc1cccc(-n2c(C)cc(C(=O)NC3CCCCC3)c2C)c1		14.6 µM [falling, partial curve]	
Cc1cccc(Nc2nc(N)nc(CC(=O)CSc3ccc(Cl)cc3)n2)c1	23.7%	0.366 µM [rising, full curve, poor fit]	0.259 µM [rising, full curve, poor fit]
COc1ccc([C@H]2Oc3cc(O)cc(O)c3C(=O)C2[C@@H]2C(=O)c3c(O)cc(O)cc3O[C@@H]2c2ccc(OC)cc2)cc1 (stereo not given in full)	-68.8%	29.1 µM [falling, single point]	29.1 µM [falling, single point]
COc1cc2c(cc1OC)CN(C(=O)C(C)(C)C)CC2	-6.09%		
Cn1ncc2cc(NC(N)=S)ccc21	40.2%		
COc1ccc(CCC(C)Nc2cccc(F)c2)cc1 (stereo not given)	-6.97%	0.92 µM [falling, full curve]	0.651 µM [falling, full curve]
CSCCC(NC(=O)c1ccc(Br)cc1)C(=O)O (stereo not given)	29.8%	29.1 µM [rising, single point]	
CCOc1ccc(S(=O)(=O)N2CCC(C(=O)NCCN3CCOCC3)CC2)cc1C	9.21%	3.55 µM [falling, full curve, poor fit]	
Cc1ccc(C(=O)OCC(=O)c2ccc(CC(=O)N3CCOCC3)s2)c(C)c1	-12.9%		
O=C(OCC(=O)c1ccc[nH]1)c1ccccc1	-5.41%		1.64 µM [rising, partial curve]

# (listing goes on)

SMILES,cell number change,AC50 [1],AC50 [2]
COCCSc1ccccc1C(=O)Nc1cc([N+](=O)[O-])ccc1OC,4.46%,"0.103 µM [falling, full curve, poor fit]",
O=C1CC(C(=O)N2CCOCC2)C2(CCCC2)O1 (stereo not given),-122%,"4.61 µM [falling, full curve]","20.6 µM [falling, partial curve]"
CSc1nncc(-c2ccccc2)n1,-18.2%,"0.82 µM [falling, partial curve, poor fit]",
CCOC(=O)CCNC(=O)CCNC(=O)C(c1ccccc1)c1ccccc1,20.5%,,
COC(=O)/C=C/c1ccccc1CN1[C@@H](CC(=O)OC)c2ccccc2S1(=O)=O,3.56%,"29.1 µM [rising, single point]",
NS(=O)(=O)c1ccc(CCNC(=O)CN2CCCCCC2)cc1,-34.7%,,
CN1/C(=C/C=N/n2cnnc2)C(C)(C)c2ccccc21,,"6.51 µM [rising, partial curve, poor fit]","2.59 µM [rising, partial curve]"
Fc1ccc(CN2CCCN(Cc3nc(-c4ccc5c(c4)OCO5)no3)CC2)cc1,-1.37%,,
O=[N+]([O-])c1cc(C(F)(F)F)ccc1NC1CCN(Cc2ccccc2)C1 (stereo not given),9.73%,"4.61 µM [rising, full curve]",
CCOC(=O)CNC(=O)CSc1ncnc2c1cnn2-c1ccc(Cl)cc1,-9.57%,,
Cc1cc(C)nc(N2CCC(C(=O)NCc3ccccc3F)CC2)n1,8.45%,"0.461 µM [falling, partial curve, poor fit]","0.461 µM [falling, single point]"
N#Cc1ccc(CN2CCN(C(=O)CN3C(=O)NC4(CCCC4)C3=O)CC2)cc1,127%,,
COc1ccc(NC(=O)CSc2ncccc2C(=O)OC(C)C)cc1OC,40.6%,"7.31 µM [falling, partial curve]","0.58 µM [rising, full curve]"
CC(C)CCn1c(CN2CCN(C(=O)c3ccco3)CC2)nc2c1c(=O)n(C)c(=O)n2C,37.8%,"16.4 µM [rising, single point]","0.13 µM [rising, full curve]"
CCOC(=O)CSc1nc2ccccc2c(=O)n1C1CCCC1,-3.57%,"5.8 µM [rising, partial curve]",
COc1ccc(-n2nc(C(=O)NCC(=O)NCCCN3CC(C)CC(C)C3)c3ccccc3c2=O)cc1 (stereo not given),12.6%,"18.4 µM [rising, partial curve]",
CC(=O)Nc1ccc(/C(C)=N/NC(=O)CN(c2ccccc2Br)S(C)(=O)=O)cc1,,,"0.731 µM [rising, single point]"
O=C(NC1=NCCS1)C12CC3CC(CC(C3)C1)C2,-42.8%,,
CC(C)NC(=O)NC(=O)CN1C(=O)NC2(CCc3ccccc3C2)C1=O (stereo not given),20.8%,,
